Results from one PubChem assay

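A panel of P. falciparum strains inside erythrocytes is exposed to compounds for three days, then a DNA-binding dye reports the amount of parasite DNA. Each compound was titrated across a series from about 0.000037 to 29 µM. The number is the fitted AC50, the concentration giving a half-maximal change in signal; a lower value means higher potency, whether the curve shows a decrease or an increase. Calls follow the curve class and fit quality: every row here is inconclusive, covering signal-raising curves and weak, poorly fitted, partial or highest-dose-only inhibition curves.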

Values are in nM. Every entry below has the call inconclusive. Only part of the assay is shown, chiefly results filed as inconclusive. A potency from a partial, single-point or poor curve is only a rough figure. Some entries filed as inconclusive have a full curve.

CCOC(=O)C1=C(COCCN)NC(C)=C(C(=O)OC)C1c1ccccc1Cl (stereo not shown) [P94_40] read potency 17782 nM (inhibitor, single point). For CCOC(=O)C1=C(COCCN)NC(C)=C(C(=O)OC)C1c1ccccc1Cl (stereo not shown) [DIV17] the result was potency 15101 nM (inhibitor, single point). With CCOC(=O)C1=C(COCCN)NC(C)=C(C(=O)OC)C1c1ccccc1Cl (stereo not shown) [GB4] the assay gave potency 19011 nM (inhibitor, single point). Result for CCOC(=O)C1=C(COCCN)NC(C)=C(C(=O)OC)C1c1ccccc1Cl (stereo not shown) [ECU] was potency 17782 nM (inhibitor, single point). CCOC(=O)C1=C(COCCN)NC(C)=C(C(=O)OC)C1c1ccccc1Cl (stereo not shown) [TAB165] gave potency 11220 nM (inhibitor, single point). For CCOC(=O)C1=C(COCCN)NC(C)=C(C(=O)OC)C1c1ccccc1Cl (stereo not shown) [ATS189] the result was potency 10000 nM (inhibitor, single point).

Result for CCOC(=O)C1=C(COCCN)NC(C)=C(C(=O)OC)C1c1ccccc1Cl (stereo not shown) [CP335] was potency 13459 nM (inhibitor, single point). CCOC(=O)C1=C(COCCN)NC(C)=C(C(=O)OC)C1c1ccccc1Cl (stereo not shown) [ICS] read potency 11220 nM (inhibitor, partial curve). With CCOC(=O)C1=C(COCCN)NC(C)=C(C(=O)OC)C1c1ccccc1Cl (stereo not shown) [Dd2] the assay gave potency 14125 nM (inhibitor, single point). With CC1=NS(=O)(=O)c2cc(Cl)ccc2N1 [W2] the assay gave potency 601.2 nM (inhibitor, full curve). Result for CC1=NS(=O)(=O)c2cc(Cl)ccc2N1 [HB3] was potency 17782 nM (inhibitor, single point). With CC1=NS(=O)(=O)c2cc(Cl)ccc2N1 [parasite line B] the assay gave potency 17782 nM (inhibitor, single point).

Result for CC1=NS(=O)(=O)c2cc(Cl)ccc2N1 [TAB165] was potency 17782 nM (inhibitor, single point). CC1=NS(=O)(=O)c2cc(Cl)ccc2N1 [CP252] gave potency 17782 nM (inhibitor, single point). With CC1=NS(=O)(=O)c2cc(Cl)ccc2N1 [JCK] the assay gave potency 15848 nM (inhibitor, single point). Result for CC1=NS(=O)(=O)c2cc(Cl)ccc2N1 [CP256] was potency 17782 nM (inhibitor, single point). With CC1=NS(=O)(=O)c2cc(Cl)ccc2N1 [PC15] the assay gave potency 17782 nM (inhibitor, single point). CC1=NS(=O)(=O)c2cc(Cl)ccc2N1 [CP191] gave potency 17782 nM (inhibitor, single point).

For CC1=NS(=O)(=O)c2cc(Cl)ccc2N1 [CP250] the result was potency 17782 nM (inhibitor, single point). Result for CC1=NS(=O)(=O)c2cc(Cl)ccc2N1 [TAB109] was potency 10000 nM (inhibitor, single point). Result for CC1=NS(=O)(=O)c2cc(Cl)ccc2N1 [CP238] was potency 17782 nM (inhibitor, single point). Result for CC1=NS(=O)(=O)c2cc(Cl)ccc2N1 [CP247] was potency 11220 nM (inhibitor, single point). For CC1=NS(=O)(=O)c2cc(Cl)ccc2N1 [AS120] the result was potency 19952 nM (inhibitor, single point). With CC1=NS(=O)(=O)c2cc(Cl)ccc2N1 [CP185] the assay gave potency 10000 nM (inhibitor, single point).

CC1=NS(=O)(=O)c2cc(Cl)ccc2N1 [P94_40] gave potency 8912 nM (inhibitor, single point). Result for CC1=NS(=O)(=O)c2cc(Cl)ccc2N1 [Dd2] was potency 17782 nM (inhibitor, single point). CC1=NS(=O)(=O)c2cc(Cl)ccc2N1 [PC49] gave potency 17782 nM (inhibitor, single point). CC1=NS(=O)(=O)c2cc(Cl)ccc2N1 [P93_24] read potency 17782 nM (inhibitor, single point). With CCc1nc(N)nc(N)c1-c1ccc(Cl)cc1 [DIV17] the assay gave potency 16944 nM (inhibitor, single point). For CCc1nc(N)nc(N)c1-c1ccc(Cl)cc1 [CP211] the result was potency 13459 nM (inhibitor, partial curve, poor fit).

CCc1nc(N)nc(N)c1-c1ccc(Cl)cc1 [CP247] gave potency 17782 nM (inhibitor, single point). CCc1nc(N)nc(N)c1-c1ccc(Cl)cc1 [AS120] gave potency 5012 nM (inhibitor, partial curve, poor fit). With CCc1nc(N)nc(N)c1-c1ccc(Cl)cc1 [ICS] the assay gave potency 10000 nM (inhibitor, single point). For CCc1nc(N)nc(N)c1-c1ccc(Cl)cc1 [CP335] the result was potency 19011 nM (inhibitor, single point).

The last 4 entries again:

CCc1nc(N)nc(N)c1-c1ccc(Cl)cc1 [CP247] gave potency 17782 nM (inhibitor, single point).
CCc1nc(N)nc(N)c1-c1ccc(Cl)cc1 [AS120] gave potency 5012 nM (inhibitor, partial curve, poor fit).
CCc1nc(N)nc(N)c1-c1ccc(Cl)cc1 [ICS] gave potency 10000 nM (inhibitor, single point).
CCc1nc(N)nc(N)c1-c1ccc(Cl)cc1 [CP335] gave potency 19011 nM (inhibitor, single point).

From PubChem BioAssay record AID504749 (NCATS, 2011).